This note sets out measurements from PMC11165193.

One assay deals with T1, NOD2 tagged with GST (UniProt Q8K3Z0).
T1 sequence: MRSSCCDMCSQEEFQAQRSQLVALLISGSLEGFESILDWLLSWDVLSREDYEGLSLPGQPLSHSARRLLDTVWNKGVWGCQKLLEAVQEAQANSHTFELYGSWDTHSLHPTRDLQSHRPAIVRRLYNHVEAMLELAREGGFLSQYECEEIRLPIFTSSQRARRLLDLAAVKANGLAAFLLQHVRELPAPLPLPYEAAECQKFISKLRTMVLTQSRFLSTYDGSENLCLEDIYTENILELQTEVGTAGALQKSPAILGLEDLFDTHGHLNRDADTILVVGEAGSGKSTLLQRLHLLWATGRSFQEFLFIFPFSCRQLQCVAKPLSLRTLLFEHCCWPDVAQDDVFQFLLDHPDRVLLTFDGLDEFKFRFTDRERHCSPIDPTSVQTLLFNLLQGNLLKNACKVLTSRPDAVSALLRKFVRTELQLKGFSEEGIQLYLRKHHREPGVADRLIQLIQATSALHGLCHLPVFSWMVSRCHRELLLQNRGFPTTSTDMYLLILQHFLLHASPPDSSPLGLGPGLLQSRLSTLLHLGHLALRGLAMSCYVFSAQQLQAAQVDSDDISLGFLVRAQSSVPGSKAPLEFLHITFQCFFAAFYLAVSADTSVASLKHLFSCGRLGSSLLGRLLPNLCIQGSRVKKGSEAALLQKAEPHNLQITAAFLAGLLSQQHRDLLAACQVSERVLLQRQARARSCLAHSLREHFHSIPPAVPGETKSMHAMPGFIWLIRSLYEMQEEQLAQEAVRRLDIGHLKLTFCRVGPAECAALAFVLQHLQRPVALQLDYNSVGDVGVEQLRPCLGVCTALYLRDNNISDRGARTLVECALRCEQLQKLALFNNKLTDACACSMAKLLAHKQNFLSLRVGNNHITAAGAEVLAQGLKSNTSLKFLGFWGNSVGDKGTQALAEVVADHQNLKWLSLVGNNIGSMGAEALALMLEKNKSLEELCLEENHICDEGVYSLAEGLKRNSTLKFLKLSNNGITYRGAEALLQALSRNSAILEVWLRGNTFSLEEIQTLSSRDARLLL
As to the kind of experiment: co-IP; 293T cells co-transfected with Flag-DUF16 and GST-NOD2; cell lysate; Figure 3F; which tag was precipitated is not told.

Assay [1] has as its target DUF16 tagged with Flag (M. pneumoniae). As to the kind of experiment: co-IP; RAW264.7 cells transfected with DUF16; cell lysate; 'internal reverse IP'; Figure 3G.
Assay [2] addresses Flag-Δ3 (13-276 aa) (M. pneumoniae). As to the kind of experiment: co-IP; RAW264.7 cells transfected with Flag-DUF16 truncations alone, 48 h; cell lysate; Co-IP using Flag tag; Western blot; Figure 6E,G,I. (In general: Immunoblotting shows a protein as a band on a membrane.)
Assay [3] addresses Flag-Δ2 (91–276 aa) (M. pneumoniae). The assay is described as above.
In assay [4] the target is Flag-Δ1 (1-90 aa) (M. pneumoniae). The assay is described as above.
Assay [5] deals with Flag-Δ3 (13-276 aa) (M. pneumoniae). As to the kind of experiment: co-IP; 293T cells co-transfected with pcDNA3.1-GST-NOD2 and Flag-DUF16 truncations, 48 h; cell lysate; Co-IP using Flag tag; Western blot; Figure 6D,F,H.
Assay [6] addresses Flag-Δ2 (91–276 aa) (M. pneumoniae). The assay is described as above.
The target of assay [7] is Flag-Δ1 (1-90 aa) (M. pneumoniae). The description is as above.

Results are given in words; binding and its absence hold for the method and conditions named. In cells and extracts the contact can be indirect. For some assays here: A result given as binding can be weak or reduced; the word gives no strength. For some assays here: Sequences can lack the tags named with a protein.

For DUF16 tagged with Flag (M. pneumoniae), the binding result with NOD2 tagged with GST was “binds”.

B1: NOD2 (endogenous in RAW264.7 macrophages) (receptor, UniProt Q8K3Z0 1-1020)
chain: MRSSCCDMCSQEEFQAQRSQLVALLISGSLEGFESILDWLLSWDVLSREDYEGLSLPGQPLSHSARRLLDTVWNKGVWGCQKLLEAVQEAQANSHTFELYGSWDTHSLHPTRDLQSHRPAIVRRLYNHVEAMLELAREGGFLSQYECEEIRLPIFTSSQRARRLLDLAAVKANGLAAFLLQHVRELPAPLPLPYEAAECQKFISKLRTMVLTQSRFLSTYDGSENLCLEDIYTENILELQTEVGTAGALQKSPAILGLEDLFDTHGHLNRDADTILVVGEAGSGKSTLLQRLHLLWATGRSFQEFLFIFPFSCRQLQCVAKPLSLRTLLFEHCCWPDVAQDDVFQFLLDHPDRVLLTFDGLDEFKFRFTDRERHCSPIDPTSVQTLLFNLLQGNLLKNACKVLTSRPDAVSALLRKFVRTELQLKGFSEEGIQLYLRKHHREPGVADRLIQLIQATSALHGLCHLPVFSWMVSRCHRELLLQNRGFPTTSTDMYLLILQHFLLHASPPDSSPLGLGPGLLQSRLSTLLHLGHLALRGLAMSCYVFSAQQLQAAQVDSDDISLGFLVRAQSSVPGSKAPLEFLHITFQCFFAAFYLAVSADTSVASLKHLFSCGRLGSSLLGRLLPNLCIQGSRVKKGSEAALLQKAEPHNLQITAAFLAGLLSQQHRDLLAACQVSERVLLQRQARARSCLAHSLREHFHSIPPAVPGETKSMHAMPGFIWLIRSLYEMQEEQLAQEAVRRLDIGHLKLTFCRVGPAECAALAFVLQHLQRPVALQLDYNSVGDVGVEQLRPCLGVCTALYLRDNNISDRGARTLVECALRCEQLQKLALFNNKLTDACACSMAKLLAHKQNFLSLRVGNNHITAAGAEVLAQGLKSNTSLKFLGFWGNSVGDKGTQALAEVVADHQNLKWLSLVGNNIGSMGAEALALMLEKNKSLEELCLEENHICDEGVYSLAEGLKRNSTLKFLKLSNNGITYRGAEALLQALSRNSAILEVWLRGNTFSLEEIQTLSSRDARLLL
As to B1, the binding result is “binds” in assay [1], “binds” in assay [2], “no binding” in assay [3] and “binds” in assay [4].

B2: NOD2 tagged with GST (receptor, UniProt Q8K3Z0 1-1020)
chain: MRSSCCDMCSQEEFQAQRSQLVALLISGSLEGFESILDWLLSWDVLSREDYEGLSLPGQPLSHSARRLLDTVWNKGVWGCQKLLEAVQEAQANSHTFELYGSWDTHSLHPTRDLQSHRPAIVRRLYNHVEAMLELAREGGFLSQYECEEIRLPIFTSSQRARRLLDLAAVKANGLAAFLLQHVRELPAPLPLPYEAAECQKFISKLRTMVLTQSRFLSTYDGSENLCLEDIYTENILELQTEVGTAGALQKSPAILGLEDLFDTHGHLNRDADTILVVGEAGSGKSTLLQRLHLLWATGRSFQEFLFIFPFSCRQLQCVAKPLSLRTLLFEHCCWPDVAQDDVFQFLLDHPDRVLLTFDGLDEFKFRFTDRERHCSPIDPTSVQTLLFNLLQGNLLKNACKVLTSRPDAVSALLRKFVRTELQLKGFSEEGIQLYLRKHHREPGVADRLIQLIQATSALHGLCHLPVFSWMVSRCHRELLLQNRGFPTTSTDMYLLILQHFLLHASPPDSSPLGLGPGLLQSRLSTLLHLGHLALRGLAMSCYVFSAQQLQAAQVDSDDISLGFLVRAQSSVPGSKAPLEFLHITFQCFFAAFYLAVSADTSVASLKHLFSCGRLGSSLLGRLLPNLCIQGSRVKKGSEAALLQKAEPHNLQITAAFLAGLLSQQHRDLLAACQVSERVLLQRQARARSCLAHSLREHFHSIPPAVPGETKSMHAMPGFIWLIRSLYEMQEEQLAQEAVRRLDIGHLKLTFCRVGPAECAALAFVLQHLQRPVALQLDYNSVGDVGVEQLRPCLGVCTALYLRDNNISDRGARTLVECALRCEQLQKLALFNNKLTDACACSMAKLLAHKQNFLSLRVGNNHITAAGAEVLAQGLKSNTSLKFLGFWGNSVGDKGTQALAEVVADHQNLKWLSLVGNNIGSMGAEALALMLEKNKSLEELCLEENHICDEGVYSLAEGLKRNSTLKFLKLSNNGITYRGAEALLQALSRNSAILEVWLRGNTFSLEEIQTLSSRDARLLL
B2: the binding entry in assay [5] is recorded as “binds”; in assay [6] it was “no binding”; in assay [7] it was “binds”.
